Reference: publication PMC4504706, “Deinococcus radiodurans PriA is a Pseudohelicase”

Biological target: Deinococcus radiodurans DnaB (Deinococcus radiodurans R1)
Test: native gel or EMSA; native agarose gel electrophoresis; PriA and DnaB mixed and incubated on ice for 10 min; 0.6% agarose in 25 mM Tris-HCl pH 8.5, 19.2 mM glycine; 50 V for about 4 h at 4°C; Coomassie staining; both purified

B1: Deinococcus radiodurans PriA (protein, UniProt P0DXX8 1-925)
chain: MTLWTVSPPAVSSEAEEKPVQDTVSLTAADQTWQVCVPLPIAALDFAAPHGYVGEVPLGCRVAVPWRGGEIRVGLVVGAGSSMGRHRLREALALLDSPEAPWVAPGTARGLTAWAEEAHLPPGLVWDDLLCTGWEPAHRHEVRAVPGADLSPYGETLPDTDWSRADLYPPALLDAAREQGLLDDRFLPDPPQVNRVVARDLNDVPPAARTQVVVTAQPWEAADPALCTPPHWEAVTGEGALTAKQQQAHDWLRAHGPQPSLGAWASGAKVGLPVVRKVADLGWAQEHPQAVPPPPAWKWLREHGPVASPAAWASAAGVRPAEVRRLMEGGAADYTFTPVTPPAAWAWLREHGPAETVSAWATGAGVSPSVAAGLLARGWAAQVQMPAPPPELPAAPLWAGPPLDELTALAADALPEEDRWRLHGGRPASRFAALAPRVARLLAQGRSVLILAPDHATLRRAWAGLGGLAALAGTRAALLSGQLSPRQREEIWRQVRAGDVRLVIGSALALSAPLPDLALLVVLEEGSDAYKLLSGSRAFVPDVAARVARSLRAALGLVGSVPAVESVPLPGLVLAPPRARVHVVDYAQPPAQPELGPLSSVHLTPGDLGYPISHDLARLLRQVQERGRQAALLAPRRGYSALLRCPRCDHVPGCPNCDVPLRFHQDRRQMECHQCGHHQSVPDRCDECGEQMWKARGPGTEWIAAEVEKLLPGFPVYRLDKDHQDDLAPLHAGEAGVVVGTQLLLAQPSPPNLALIGVTLADTWLGVSDFRASERYHRLLRQLAEWHPSRAPLLVVQTFQGDHPALKVLETGRDALAYPAAEERVRAELFYPPHARLAQIEVAARDRDRAKVAAQALADALHGAGAVATEVLGPAHAAVARVRGAYLYQLLLRARNDARLAELLGVLDTRSWGARVRVDVNPRST
binding: binds

These are yes or no findings as the source states them, for the method shown. A result given as binding can be weak or reduced; the word gives no strength.
